Measurements as given in patent publication US8481501B2 (priority 2004, dated 2013).
For part of these data: The name of at least one read-out is uncertain. For part of these data: At least one structure is not confirmed: it was looked up by name or label, or the drawing left a doubt.

Amino acid sequences for entries named in this document (tags omitted). A change or cut given only in a name is not applied to a line headed by its entry.
UniProt P41145: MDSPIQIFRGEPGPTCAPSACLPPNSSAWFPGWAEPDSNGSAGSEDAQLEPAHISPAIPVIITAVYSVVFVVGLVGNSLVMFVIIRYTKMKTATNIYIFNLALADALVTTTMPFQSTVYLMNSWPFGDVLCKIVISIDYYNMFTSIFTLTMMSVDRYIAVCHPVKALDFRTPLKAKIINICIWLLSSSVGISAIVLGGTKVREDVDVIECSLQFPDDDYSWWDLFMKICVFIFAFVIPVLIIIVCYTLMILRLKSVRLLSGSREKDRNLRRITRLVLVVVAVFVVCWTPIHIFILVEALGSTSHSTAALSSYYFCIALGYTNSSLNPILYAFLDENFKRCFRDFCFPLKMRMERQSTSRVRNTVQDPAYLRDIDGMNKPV
UniProt P42866, whole entry: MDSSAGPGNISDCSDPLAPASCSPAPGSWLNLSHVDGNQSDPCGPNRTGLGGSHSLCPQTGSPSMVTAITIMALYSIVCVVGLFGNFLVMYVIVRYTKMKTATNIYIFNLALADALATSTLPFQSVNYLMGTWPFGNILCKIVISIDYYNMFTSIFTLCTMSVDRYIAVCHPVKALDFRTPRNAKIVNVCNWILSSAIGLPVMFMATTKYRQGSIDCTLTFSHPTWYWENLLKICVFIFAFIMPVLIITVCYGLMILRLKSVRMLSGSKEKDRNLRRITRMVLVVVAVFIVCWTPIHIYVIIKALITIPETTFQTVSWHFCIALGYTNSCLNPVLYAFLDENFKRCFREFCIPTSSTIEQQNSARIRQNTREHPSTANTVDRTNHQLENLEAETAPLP

Tests used:
kappa opioid receptor = kappa opioid receptor (Homo sapiens, UniProt P41145); assay type: biochemical; parameters: expressed in transfected cells; host or cells: transfected cells; conditions: Table 2
mu receptor = target: T1, mu receptor (Mus musculus, UniProt P42866); assay type: cell-based; conditions: 1 μM compound; surface staining relative to control, lower = more internalization
T1 construct: expressed in transfected cells

| Structure (SMILES) | kappa % stimulation (kappa opioid receptor) | Mu receptor internalization % control (mu receptor) [%] |
| --- | --- | --- |
| COC(=O)[C@H]1OC(CC(=O)NC2C=CC3C4Cc5ccc(O)c6c5C3(CCN4C)C2O6)[C@H](OC(C)=O)[C@@H](OC(C)=O)[C@@H]1OC(C)=O (stereo in doubt) [compound 10, 6α-(Methyl 2′,3′,4′-tri-O-acetyl-β-D-glucopyranosyluronate)acetamido-morphine] | reduced stimulation | – |
| CN1CCC23c4c5ccc(O)c4OC2C(NC(=O)c2cccc([N+](=O)[O-])c2)C=CC3C1C5 (stereo not drawn) [13f, 6β-(3′Nitro)benzamidomorphine] | – | 58.69 |
| CN1CCC23c4c5ccc(O)c4OC2C(NC(=O)c2ccc(Cl)c(Cl)c2)C=CC3C1C5 (stereo not drawn) [13g, 6β-(3′,4′-Dichloro)benzamidomorphine] | – | 47.11 |
